The list does not hold the whole screen: it is rich in T/C values a quarter to a half above the control, in often repeated tests (any T/C) and in doses without a T/C. Further doses and runs are listed elsewhere. T/C is the treated group as % of the vehicle group. Some doses have a count of surviving animals in place of a T/C: the source holds a T/C of zero for them, seemingly a mark for toxic or unscored doses. Some doses without a T/C left all or most animals alive at the check, yet need not have been tolerated: survival well below the control is almost never listed, so the zero probably covers shortened survival too. Counts of survivors are from the toxicity check (mostly the fifth day) where no day follows; animals may have died later. Schedule codes are those of the source, taken here to give the interval after Q, in days (D) or hours (H), and the number of doses after X. Some entries were tested several times; the results are listed from low to high. For survival time, this PubChem deposit counts one and a half times the control or more as active, and values a quarter to a half above the control carry no call in these data; other NCI protocols may use other cut-offs. Some T/C values are followed by the survivors on the day toxicity was checked, most often the fifth; where none is given, no animal had died by that day.
Tested on: BDF1 mice, P388 leukemia ip, median survival T/C
Assay: NCI In Vivo Anticancer Drug Screen. Data for tumor model P388 Leukemia (intraperitoneal) in B6D2F1 (BDF1) mice
Conditions: T/C endpoint: median survival time, higher T/C = longer survival
Summary of the method: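 Reported as T/C, where T is the survival measurement in dosed animals and C the same measurement in vehicle controls.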

[1] = dose: 50.0 mg/kg/injection, schedule: Q01DX009 (ip), vehicle: saline with Tween-80
[2] = dose: 100.0 mg/kg/injection, schedule: Q01DX009 (ip), vehicle: saline with Tween-80
[3] = dose: 200.0 mg/kg/injection, schedule: Q01DX009 (ip), vehicle: saline with Tween-80
[4] = dose: 20.0 mg/kg/injection, schedule: Q04DX003 (ip), vehicle: saline
[5] = dose: 400.0 mg/kg/injection, schedule: Q01DX009 (ip), vehicle: saline
[6] = dose: 400.0 mg/kg/injection, schedule: Q01DX009 (ip), vehicle: Klucel (hydroxypropylcellulose) (HPC)
[7] = dose: 400.0 mg/kg/injection, schedule: Q01DX009 (ip), vehicle: saline with Tween-80
[8] = dose: 200.0 mg/kg/injection, schedule: Q04DX003 (ip), vehicle: saline with Tween-80
[9] = dose: 12.5 mg/kg/injection, schedule: Q01DX009 (ip), vehicle: Klucel (hydroxypropylcellulose) (HPC)
[10] = dose: 25.0 mg/kg/injection, schedule: Q01DX009 (ip), vehicle: Klucel (hydroxypropylcellulose) (HPC)
[11] = dose: 50.0 mg/kg/injection, schedule: Q01DX009 (ip), vehicle: Klucel (hydroxypropylcellulose) (HPC)
[12] = dose: 200.0 mg/kg/injection, schedule: Q01DX009 (ip), vehicle: Klucel (hydroxypropylcellulose) (HPC)

Structure (SMILES): COC(=O)C(Cl)(Cl)N=Nc1c(Cl)cc(Cl)c(C)c1Cl
- T/C [1]: 142 % of control
- T/C [2]: 130 and 143 % of control
- survivor count [3]: 6 of 6

Structure (SMILES): C=CCOCCN1CCN(CCCN2c3ccccc3Sc3ccc(C(F)(F)F)cc32)CC1
- T/C (dose: 5.0 mg/kg/injection, schedule: Q04DX003 (ip), vehicle: saline): 125 % of control
- T/C (dose: 10.0 mg/kg/injection, schedule: Q04DX003 (ip), vehicle: saline): 142 % of control
- T/C [4]: 144 % of control
- survivor count [4]: 6 of 6
- survivor count (dose: 40.0 mg/kg/injection, schedule: Q04DX003 (ip), vehicle: saline): 3 of 6 and 5 of 6

Structure (SMILES): COc1cccc2c1C(=O)c1c(O)c3c(c(O)c1C2=O)CC(O)(/C(C)=N/NC(=O)CCCCCCCCC(=O)N/N=C(\C)C1(O)Cc2c(O)c4c(c(O)c2C(OC2CC(N)C(O)C(C)O2)C1)C(=O)c1c(OC)cccc1C4=O)CC3OC1CC(N)C(O)C(C)O1 (stereo not drawn)
- T/C (dose: 12.5 mg/kg/injection, schedule: Q01DX009 (ip), vehicle: water): 126 % of control
- survivor count (dose: 50.0 mg/kg/injection, schedule: Q01DX009 (ip), vehicle: water): 2 of 3

Structure (SMILES): CCOC(=O)N1C=Cn2c(cnc2C)C1O (stereo not drawn)
- survivor count (dose: 200.0 mg/kg/injection, schedule: Q01DX009 (ip), vehicle: saline): 5 of 6
- survivor count [5]: 6 of 6

Structure (SMILES): CC1(C)CC1(Br)Br
- T/C [1]: 126 and 135 % of control
- survivor count [3]: 3 of 6

Structure (SMILES): CC1(C)C2CC=C(C[P+](c3ccccc3)(c3ccccc3)c3ccccc3)C1C2 (stereo not drawn)
- survivor count (dose: 5.0 mg/kg/injection, schedule: Q01DX009 (ip), vehicle: saline sonified): 5 of 6
- survivor count (dose: 7.5 mg/kg/injection, schedule: Q01DX009 (ip), vehicle: saline sonified): 2 of 6

Structure (SMILES): Nc1nc(N)c(-c2ccc(Cl)c(Cl)c2)c(COc2cccc(CNC(=O)c3cccc(S(=O)(=O)F)c3)c2)n1
- T/C (dose: 130.0 mg/kg/injection, schedule: Q01DX009 (ip), vehicle: Klucel (hydroxypropylcellulose) (HPC)): 145 % of control
- T/C (dose: 132.0 mg/kg/injection, schedule: Q04DX003 (ip), vehicle: Klucel (hydroxypropylcellulose) (HPC)): 140 % of control
- T/C (dose: 200.0 mg/kg/injection, schedule: Q04DX003 (ip), vehicle: Klucel (hydroxypropylcellulose) (HPC)): 145 % of control

Structure (SMILES): c1nc(N2CC2)c2cnn(C3CCCCO3)c2n1 (stereo not drawn)
- survivor count [6]: 0 of 6

Structure (SMILES): c1ccc(C2CN3CCSC3=N2)cc1 (stereo not drawn)
- survivor count [1]: 0 of 6
- survivor count [2]: 0 of 6
- survivor count [3]: 0 of 6
- survivor count [7]: 0 of 6

Structure (SMILES): O=S1(=O)CC2(N3CCOCC3)C3CCC(C3)C21 (stereo not drawn)
- T/C [8]: 129 % of control

Structure (SMILES): CCOCCOCCOc1nc(F)c(Cl)cc1Cl
- T/C (dose: 400.0 mg/kg/injection, schedule: Q04DX003 (ip), vehicle: saline with Tween-80): 129 % of control

Structure (SMILES): NC(=O)C(O)C(Br)(Br)Br (stereo not drawn)
- survivor count [5]: 5 of 5

Structure (SMILES): N#CC(Br)C(N)=O (stereo not drawn)
- survivor count (dose: 10.0 mg/kg/injection, schedule: Q01DX009 (ip), vehicle: saline): 3 of 6
- survivor count (dose: 20.0 mg/kg/injection, schedule: Q01DX009 (ip), vehicle: saline): 0 of 6

Structure (SMILES): C#CCOCC(CCl)OC(=O)Nc1ccccc1 (stereo not drawn)
- survivor count [8]: 6 of 6

Structure (SMILES): CCOC(=O)CN1C(=O)C(Cl)=C(Cl)C1=O
- survivor count [9]: 3 of 6
- survivor count (dose: 45.0 mg/kg/injection, schedule: Q04DX003 (ip), vehicle: Klucel (hydroxypropylcellulose) (HPC)): 3 of 6
- survivor count (dose: 65.0 mg/kg/injection, schedule: Q04DX003 (ip), vehicle: Klucel (hydroxypropylcellulose) (HPC)): 0 of 6

Structure (SMILES): CCOC(=O)Nc1cc2c(c(N)n1)N=C(c1ccccc1)CN2
- T/C (dose: 2.0 mg/kg/injection, schedule: Q04DX003 (ip), vehicle: saline with Tween-80): 126 % of control
- T/C (dose: 4.5 mg/kg/injection, schedule: Q04DX003 (ip), vehicle: saline with Tween-80): 142 % of control

Structure (SMILES): CCCCCC(CN(C)C)C(=O)/C=C/c1c(Cl)cccc1Cl (stereo not drawn)
- survivor count [10]: 4 of 6
- survivor count (dose: 95.0 mg/kg/injection, schedule: Q01DX001 (ip), vehicle: saline): 3 of 6

Structure (SMILES): CCOC(=O)C1OC12CCCCC2 (stereo not drawn)
- survivor count (dose: 100.0 mg/kg/injection, schedule: Q04DX003 (ip), vehicle: Klucel (hydroxypropylcellulose) (HPC)): 6 of 6

Structure (SMILES): CCCCCCCCN(c1ccc(I)cc1)S(=O)(=O)c1ccc(C)cc1
- T/C [8]: 138 % of control

Structure (SMILES): CCCC#CC#N
- survivor count (dose: 100.0 mg/kg/injection, schedule: Q01DX009 (ip), vehicle: olive oil, sesame oil, peanut oil): 2 of 6
- survivor count (dose: 200.0 mg/kg/injection, schedule: Q01DX009 (ip), vehicle: olive oil, sesame oil, peanut oil): 0 of 6

Structure (SMILES): COC(OC)c1nc(N)[nH]c(=O)c1Cc1ccc(C)c2ccccc12
- survivor count [7]: 6 of 6

Structure (SMILES): Clc1c(CBr)c(Cl)c(CBr)c(Cl)c1CBr
- survivor count [11]: 2 of 6

Structure (SMILES): Cc1c2c(nn1-c1ccccn1)C(=O)C=C(Nc1ccccc1)C2=O
- survivor count (dose: 17.5 mg/kg/injection, schedule: Q01DX009 (ip), vehicle: carboxymethylcellulose (CMC)): 6 of 6
- survivor count (dose: 35.0 mg/kg/injection, schedule: Q01DX009 (ip), vehicle: carboxymethylcellulose (CMC)): 6 of 6
- survivor count (dose: 70.0 mg/kg/injection, schedule: Q01DX009 (ip), vehicle: carboxymethylcellulose (CMC)): 6 of 6

Structure (SMILES): NC(=S)N/N=C/c1ccc(OC(=O)Cc2ccccc2)cn1
- T/C (dose: 25.0 mg/kg/injection, schedule: Q01DX009 (ip), vehicle: saline with Tween-80): 140 % of control
- T/C [1]: 142 % of control [5 of 6 alive]
- T/C [2]: 142 % of control

Structure (SMILES): COC(=O)C1=C(C)NC(C)=C(C(=O)OC)C1C(C)Cl (stereo not drawn)
- survivor count [3]: 0 of 6

Structure (SMILES): O=C(O)c1cc(-c2ccc(Cl)cc2)nc2c(Cl)cccc12
- survivor count [12]: 6 of 6
- survivor count (dose: 400.0 mg/kg/injection, schedule: Q04DX003 (ip), vehicle: Klucel (hydroxypropylcellulose) (HPC)): 0 of 6

Structure (SMILES): CCCCN(CCCC)CC(O)c1ccnc2cc3c(cc12)OCO3 (stereo not drawn)
- survivor count (dose: 200.0 mg/kg/injection, schedule: Q01DX001 (ip), vehicle: saline with Tween-80): 1 of 6
- survivor count (dose: 400.0 mg/kg/injection, schedule: Q01DX001 (ip), vehicle: saline with Tween-80): 0 of 6

Structure (SMILES): CCc1c(-c2ccccc2)[nH]c2ccccc12
- survivor count [7]: 0 of 6

Structure (SMILES): CCCCCCC(C)NCC(O)COc1cccc(C)c1 (stereo not drawn)
- T/C (dose: 6.25 mg/kg/injection, schedule: Q01DX009 (ip), vehicle: Klucel (hydroxypropylcellulose) (HPC)): 130 % of control
- survivor count [11]: 5 of 6

Structure (SMILES): CC1(C)C2CCC([CH2][Hg][Cl])C1C2 (stereo not drawn)
- T/C (dose: 6.25 mg/kg/injection, schedule: Q01DX009 (ip), vehicle: saline with Tween-80): 125 % of control [5 of 6 alive]
- T/C (dose: 12.5 mg/kg/injection, schedule: Q01DX009 (ip), vehicle: saline with Tween-80): 130 % of control

Structure (SMILES): O=[As]c1ccc(Br)cc1 (stereo not drawn)
- survivor count (dose: 3.0 mg/kg/injection, schedule: Q01DX009 (ip), vehicle: Klucel (hydroxypropylcellulose) (HPC)): 5 of 6
- survivor count (dose: 6.0 mg/kg/injection, schedule: Q01DX009 (ip), vehicle: Klucel (hydroxypropylcellulose) (HPC)): 0 of 6
- survivor count (dose: 12.0 mg/kg/injection, schedule: Q01DX009 (ip), vehicle: Klucel (hydroxypropylcellulose) (HPC)): 0 of 6
- survivor count [9]: 0 of 6
- survivor count [10]: 0 of 6
- survivor count [11]: 0 of 6
- survivor count (dose: 100.0 mg/kg/injection, schedule: Q01DX009 (ip), vehicle: Klucel (hydroxypropylcellulose) (HPC)): 0 of 6
- survivor count [12]: 0 of 6
- survivor count [6]: 0 of 6

From PubChem BioAssay AID328 (DTP/NCI, 2004)
